Source: US6906046B2 (Celltech R & D Inc., priority 2000, dated 2005)
The name of at least one read-out is uncertain. Some compounds share one range, which may span the group rather than tell each member.

Test system: NFκB
Test: NFκB luciferase reporter assay in TNF-α stimulated A549 cells (E-selectin promoter)
Assay type: cell-based
Conditions: % inhibition or IC50 in μM, given as class symbols
Experimental: A549 cells were stably transfected with an E-selectin promoter containing three NFκB binding sites driving luciferase expression. For the assay, 5×10^4 cells were incubated in 96 well round bottom plates overnight in 100 μL of 10% FBS/RPMI medium at 37° C. in a 5% CO2 atmosphere. The following morning the medium was removed and 90 μL of a 1% DMSO solution of test compound solution was added and the plates incubated for 1 hour. 10 μL of TNF-α was added at its EC50 (normally 6 ng/mL FAC) to each well and the plate incubated for 5 hours. 100 μL of luciferase buffer was added, and after 10 minutes luminescence was read on a Wallac Victor 1420 Multilabel Counter. The data obtained from the Wallac Victor was converted into % inhibition data or IC50 measured in μM.

SMILES: CCCCCN(CCCCC)C(=O)[C@@H]1[C@H](C(=O)N(C)CC(=O)NCc2c(OC)cc(OC)cc2OC)C2CC(=O)[C@H]1c1cc(OCc3ccc(C(=O)N4CCC[C@H]4C(=O)N(C)C)cc3)ccc12 [Example 5]
- NFκB inh: * (refers to percent inhibition from 6% to 64%)
